Reference: patent US4123425A, “(2-MeAla^5)-somatostatin and analogues thereof” (American Home Products Corporation, priority 1977, dated 1978)
Part of at least one peptide drawing is inferred or uncertain, most often the ends.

Key:
Assay type in all cases: in vivo
[1] = tested on: growth hormone; assay: Growth hormone by radioimmunoassay in Nembutal-anesthetized, arginine-injected rats; conditions: for GH: albino male rats, Nembutal + arginine
[2] = tested on: insulin; assay: Insulin by radioimmunoassay in Nembutal-anesthetized, arginine-injected rats
[3] = tested on: glucagon; assay: Glucagon by radioimmunoassay in Nembutal-anesthetized, arginine-injected rats
[4] = tested on: growth hormone secretion; assay: Effect on growth hormone secretion in rats treated with Nembutal after 15 minutes and 1 hour; conditions: dose 1,000 ug/kg

C[C@H](N)C(=O)NCC(=O)N[C@H]1CSSC[C@@H](C(=O)O)NC(=O)[C@H](CO)NC(=O)[C@H]([C@@H](C)O)NC(=O)[C@H](Cc2ccccc2)NC(=O)[C@H]([C@@H](C)O)NC(=O)[C@H](CCCCN)NC(=O)[C@H](Cc2c[nH]c3ccccc23)NC(=O)[C@H](Cc2ccccc2)NC(=O)[C@H](Cc2ccccc2)NC(=O)C(C)(C)NC(=O)[C@H](CCCCN)NC1=O [(2-MeAla^5)-Somatostatin, L-Alanylglycyl-L-cysteinyl-L-lysyl-2-methylalanyl-L-phenylalanyl-L-phenylalanyl-L-tryptophyl-L-lysyl-L-threonyl-L-phenylalanyl-L-L-threonyl-L-seryl-L-cysteine cyclic (3→14)disulfide, triacetate]
GH ([1]; dose 10 ug/kg subcutaneous, second experiment (control 45 ± 11)): 52 ± 15 ng/mL | GH ([1]; dose 50 ug/kg subcutaneous, second experiment (control 45 ± 11)): 28 ± 6 ng/mL | GH ([1]; dose 1,000 ug/kg subcutaneous, first experiment (control 192 ± 28)): 43 ± 4 ng/mL | reducing secretion of growth hormone (summary in words) ([1]; rats): effective agent for reducing secretion of growth hormone | Insulin ([2]; dose 1,000 ug/kg subcutaneous, albino male rats, Nembutal + arginine, control 205 ± 22, * not significant): 168 ± 15 μU/ml | effect on insulin levels (summary in words) ([2]; rats): without materially affecting | Glucagon ([3]; dose 1,000 ug/kg subcutaneous, albino male rats, Nembutal + arginine, control 69 ± 10, * not significant): 49 ± 5 pg/mL | effect on glucagon levels (summary in words) ([3]; rats): without materially affecting | Growth Hormone ([4]; time 15, plasma, control 81 ± 14): 43 ± 7 ng/mL | Growth Hormone ([4]; time 60, plasma, control 173 ± 27): 97 ± 8 ng/mL
